Measurements published in PMC10060430.
No constants are given. Whether binding was seen depends on the method and setting. In cells and extracts the contact can be indirect. Some entries that bind do so weakly or less than the wild type.

Protein sequences, listed by entry. Tags and fused reporters are not part of them.
UniProt P49588: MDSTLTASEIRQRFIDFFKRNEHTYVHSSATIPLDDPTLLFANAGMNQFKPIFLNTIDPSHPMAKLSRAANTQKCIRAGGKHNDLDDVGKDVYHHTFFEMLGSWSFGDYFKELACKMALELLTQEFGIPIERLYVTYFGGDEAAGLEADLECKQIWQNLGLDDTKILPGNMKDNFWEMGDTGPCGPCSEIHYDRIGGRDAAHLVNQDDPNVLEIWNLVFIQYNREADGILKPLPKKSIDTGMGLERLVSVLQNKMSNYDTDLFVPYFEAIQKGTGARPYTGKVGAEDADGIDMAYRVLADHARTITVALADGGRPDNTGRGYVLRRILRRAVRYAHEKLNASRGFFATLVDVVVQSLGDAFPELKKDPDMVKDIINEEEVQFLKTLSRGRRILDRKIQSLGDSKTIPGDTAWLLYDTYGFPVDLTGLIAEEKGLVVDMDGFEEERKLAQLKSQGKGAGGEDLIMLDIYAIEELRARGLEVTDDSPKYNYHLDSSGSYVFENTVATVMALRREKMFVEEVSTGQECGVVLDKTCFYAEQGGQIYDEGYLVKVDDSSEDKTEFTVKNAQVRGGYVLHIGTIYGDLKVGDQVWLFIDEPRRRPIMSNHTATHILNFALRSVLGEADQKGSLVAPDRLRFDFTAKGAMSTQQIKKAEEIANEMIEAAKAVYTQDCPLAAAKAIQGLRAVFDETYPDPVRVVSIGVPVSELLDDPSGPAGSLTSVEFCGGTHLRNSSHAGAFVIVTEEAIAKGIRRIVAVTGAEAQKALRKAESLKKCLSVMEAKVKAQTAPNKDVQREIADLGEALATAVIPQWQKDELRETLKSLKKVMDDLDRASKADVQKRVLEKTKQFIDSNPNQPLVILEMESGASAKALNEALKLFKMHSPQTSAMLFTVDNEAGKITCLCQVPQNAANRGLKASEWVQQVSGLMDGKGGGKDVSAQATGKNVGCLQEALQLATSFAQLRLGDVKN
UniProt P09874: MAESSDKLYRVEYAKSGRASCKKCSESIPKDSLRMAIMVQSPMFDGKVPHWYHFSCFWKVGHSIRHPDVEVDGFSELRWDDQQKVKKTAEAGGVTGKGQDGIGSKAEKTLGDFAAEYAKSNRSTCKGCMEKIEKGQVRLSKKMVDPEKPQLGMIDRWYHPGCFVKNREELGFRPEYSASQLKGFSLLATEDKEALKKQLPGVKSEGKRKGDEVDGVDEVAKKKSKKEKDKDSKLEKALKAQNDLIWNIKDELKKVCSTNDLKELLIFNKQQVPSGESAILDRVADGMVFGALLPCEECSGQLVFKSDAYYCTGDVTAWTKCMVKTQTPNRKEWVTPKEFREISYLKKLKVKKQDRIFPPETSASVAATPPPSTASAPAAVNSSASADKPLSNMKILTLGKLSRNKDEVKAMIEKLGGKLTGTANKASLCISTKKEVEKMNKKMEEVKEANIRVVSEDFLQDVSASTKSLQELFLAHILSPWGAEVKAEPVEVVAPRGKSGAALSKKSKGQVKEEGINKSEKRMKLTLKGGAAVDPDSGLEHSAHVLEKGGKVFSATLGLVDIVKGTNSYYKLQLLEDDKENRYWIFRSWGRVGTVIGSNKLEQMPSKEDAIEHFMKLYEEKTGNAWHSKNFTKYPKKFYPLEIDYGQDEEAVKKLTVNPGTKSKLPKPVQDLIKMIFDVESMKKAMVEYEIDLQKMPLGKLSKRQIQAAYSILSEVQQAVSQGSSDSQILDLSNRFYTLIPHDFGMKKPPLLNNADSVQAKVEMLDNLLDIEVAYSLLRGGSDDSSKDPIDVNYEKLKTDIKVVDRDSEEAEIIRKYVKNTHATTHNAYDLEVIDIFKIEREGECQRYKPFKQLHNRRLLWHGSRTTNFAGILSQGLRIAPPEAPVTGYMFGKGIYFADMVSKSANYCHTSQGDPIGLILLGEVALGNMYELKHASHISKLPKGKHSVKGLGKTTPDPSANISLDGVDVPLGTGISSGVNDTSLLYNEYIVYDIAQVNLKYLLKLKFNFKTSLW

What was measured:
[1] = molecular target: endogenous AARS1 in DC tissues (human (endogenous in duodenal cancer tissue)) (UniProt P49588); experiment: co-IP; endogenous AARS1 and PARP1 in DC tissues
exogenous AARS1 (human) = exogenous AARS1 (human) (UniProt P49588); experiment: co-IP; exogenous AARS1 and exogenous PARP1 in cultured Hutu80 cells and WDC-1 cells

endogenous PARP1 in DC tissues (from UniProt P09874 1-1014) (enzyme)
binding [1]: binds

exogenous PARP1 (from UniProt P09874 1-1014) (enzyme)
binding (exogenous AARS1 (human)): binds
